Publication PMC5157023

B1: HnRNP M (protein, UniProt P52272 1-730)
chain: MAAGVEAAAEVAATEIKMEEESGAPGVPSGNGAPGPKGEGERPAQNEKRKEKNIKRGGNRFEPYANPTKRYRAFITNIPFDVKWQSLKDLVKEKVGEVTYVELLMDAEGKSRGCAVVEFKMEESMKKAAEVLNKHSLSGRPLKVKEDPDGEHARRAMQKVMATTGGMGMGPGGPGMITIPPSILNNPNIPNEIIHALQAGRLGSTVFVANLDYKVGWKKLKEVFSMAGVVVRADILEDKDGKSRGIGTVTFEQSIEAVQAISMFNGQLLFDRPMHVKMDERALPKGDFFPPERPQQLPHGLGGIGMGLGPGGQPIDANHLNKGIGMGNIGPAGMGMEGIGFGINKMGGMEGPFGGGMENMGRFGSGMNMGRINEILSNALKRGEIIAKQGGGGGGGSVPGIERMGPGIDRLGGAGMERMGAGLGHGMDRVGSEIERMGLVMDRMGSVERMGSGIERMGPLGLDHMASSIERMGQTMERIGSGVERMGAGMGFGLERMAAPIDRVGQTIERMGSGVERMGPAIERMGLSMERMVPAGMGAGLERMGPVMDRMATGLERMGANNLERMGLERMGANSLERMGLERMGANSLERMGPAMGPALGAGIERMGLAMGGGGGASFDRAIEMERGNFGGSFAGSFGGAGGHAPGVARKACQIFVRNLPFDFTWKMLKDKFNECGHVLYADIKMENGKSKGCGVVKFESPEVAERACRMMNGMKLSGREIDVRIDRNA
B2: HnRNP R (protein, UniProt O43390 1-633)
chain: MANQVNGNAVQLKEEEEPMDTSSVTHTEHYKTLIEAGLPQKVAERLDEIFQTGLVAYVDLDERAIDALREFNEEGALSVLQQFKESDLSHVQNKSAFLCGVMKTYRQREKQGSKVQESTKGPDEAKIKALLERTGYTLDVTTGQRKYGGPPPDSVYSGVQPGIGTEVFVGKIPRDLYEDELVPLFEKAGPIWDLRLMMDPLSGQNRGYAFITFCGKEAAQEAVKLCDSYEIRPGKHLGVCISVANNRLFVGSIPKNKTKENILEEFSKVTEGLVDVILYHQPDDKKKNRGFCFLEYEDHKSAAQARRRLMSGKVKVWGNVVTVEWADPVEEPDPEVMAKVKVLFVRNLATTVTEEILEKSFSEFGKLERVKKLKDYAFVHFEDRGAAVKAMDEMNGKEIEGEEIEIVLAKPPDKKRKERQAARQASRSTAYEDYYYHPPPRMPPPIRGRGRGGGRGGYGYPPDYYGYEDYYDDYYGYDYHDYRGGYEDPYYGYDDGYAVRGRGGGRGGRGAPPPPRGRGAPPPRGRAGYSQRGAPLGPPRGSRGGRGGPAQQQRGRGSRGSRGNRGGNVGGKRKADGYNQPDSKRRQTNNQQNWGSQPIAQQPLQQGGDYSGNYGYNNDNQEFYQDTYGQQWK
B3: HnRNP A0 (protein, UniProt Q13151 1-305)
chain: MENSQLCKLFIGGLNVQTSESGLRGHFEAFGTLTDCVVVVNPQTKRSRCFGFVTYSNVEEADAAMAASPHAVDGNTVELKRAVSREDSARPGAHAKVKKLFVGGLKGDVAEGDLIEHFSQFGTVEKAEIIADKQSGKKRGFGFVYFQNHDAADKAAVVKFHPIQGHRVEVKKAVPKEDIYSGGGGGGSRSSRGGRGGRGRGGGRDQNGLSKGGGGGYNSYGGYGGGGGGGYNAYGGGGGGSSYGGSDYGNGFGGFGSYSQHQSSYGPMKSGGGGGGGGSSWGGRSNSGPYRGGYGGGGGYGGSSF
B4: HnRNP L (protein, UniProt P14866 1-589)
chain: MSRRLLPRAEKRRRRLEQRQQPDEQRRRSGAMVKMAAAGGGGGGGRYYGGGSEGGRAPKRLKTDNAGDQHGGGGGGGGGAGAAGGGGGGENYDDPHKTPASPVVHIRGLIDGVVEADLVEALQEFGPISYVVVMPKKRQALVEFEDVLGACNAVNYAADNQIYIAGHPAFVNYSTSQKISRPGDSDDSRSVNSVLLFTILNPIYSITTDVLYTICNPCGPVQRIVIFRKNGVQAMVEFDSVQSAQRAKASLNGADIYSGCCTLKIEYAKPTRLNVFKNDQDTWDYTNPNLSGQGDPGSNPNKRQRQPPLLGDHPAEYGGPHGGYHSHYHDEGYGPPPPHYEGRRMGPPVGGHRRGPSRYGPQYGHPPPPPPPPEYGPHADSPVLMVYGLDQSKMNCDRVFNVFCLYGNVEKVKFMKSKPGAAMVEMADGYAVDRAITHLNNNFMFGQKLNVCVSKQPAIMPGQSYGLEDGSCSYKDFSESRNNRFSTPEQAAKNRIQHPSNVLHFFNAPLEVTEENFFEICDELGVKRPSSVKVFSGKSERSSSGLLEWESKSDALETLGFLNHYQMKNPNGPYPYTLKLCFSTAQHAS

biological target: V5-tagged RE-1 silencing transcription factor (REST) (UniProt Q13127); test: affinity purification with mass spectrometry; V5-tagged REST from transfected HEK293FT cells immunoisolated with anti-V5 antibody on agarose beads; lysis buffer 50 mM Tris-HCl pH 7.4, 150 mM NaCl, 5 mM EDTA, 0.2% TritonX-100, 15 U/ml DNAse I; in-solution digestion, triplicate LC-MS/MS, label-free quantification against control vector

Binder | binding
B1 | binds
B2 | binds
B3 | binds
B4 | binds

Results are given in words; binding and its absence hold for the method and conditions named. In cells and extracts the contact can be indirect. These calls come from enrichment with a bait or labelling near it, and not all partners need be listed. Tags and fused reporters may be left off the sequences shown.
